Results: PubChem BioAssay AID759 (NMMLSC, 2007)
In all, about 190,000 compounds went through this assay and about 270 (0.14%) were called active. Only results without a clear call are listed here; the source files them as inconclusive.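 How the source made its calls: active means GTP binding activity at least 20% away from the 100% baseline, either lowered as inhibitor or raised as activator; inconclusive means flagged as likely green fluorescent, judged across all proteins in the well; inactive means the rest.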

Amino acid sequences for entries named in this document (tags omitted).
UniProt P01112, whole entry: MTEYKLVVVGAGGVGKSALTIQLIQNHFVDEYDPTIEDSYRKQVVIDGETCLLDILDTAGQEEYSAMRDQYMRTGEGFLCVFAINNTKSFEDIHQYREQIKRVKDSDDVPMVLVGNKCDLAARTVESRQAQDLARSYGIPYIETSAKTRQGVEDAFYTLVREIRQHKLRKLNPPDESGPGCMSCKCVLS

The compounds below were run against GTPase HRas (Homo sapiens) (UniProt P01112) (assay: HRas wt fluorescent GTP binding changes, either direction – biochemical, wildtype, bead-based flow cytometry, multiplex, primary screen (AID 759;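 further: 0% = unlabeled GTP competition control and 100% = no-compound control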)). Settings: GST-Ras wt beads, Bodipy-FL-GTP binding, at 10 µM, actives lie on both sides.

Compound | GTP binding activity
CC(C)c1ccc(OP(C)(=O)Nc2ccc(SC(F)(F)F)cc2)cc1 (stereo unspecified) | inconclusive: 96%
